Taken from: PubChem BioAssay AID1259254 (NCATS, 2017)

Test: 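Gene knock-downs that lead to re-replication, shown by excess G2 DNA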 (primary screen)
Cell system: human HCT116 colorectal cancer cells
Knock-down reagent: single siRNA against human genes
Time to read-out: 3 days
Measured: 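Nuclei stained with Hoechst and imaged; cell-cycle phase assigned by DNA content; G2 share scaled per plate, non-targeting siRNA 0%, GMNN siRNA 100%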
Direction: G2 robust z-score and G2 cells, % of GMNN control: higher = more G2 cells, more excess DNA replication; raw share of cells in G2: higher = larger share of cells with G2 DNA content
Active means: 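Active siRNAs have a G2 robust z of 5 or more median absolute deviations over the median, which in these data means about 38% or higher of GMNN control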
The deposit covers about 59,000 reagents; shown is an unselected part. Of all reagents, about 1,550 (2.6%) got an active call. 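G2 share is only a proxy for re-replication; each gene was hit by three separate siRNAs, and active genes were retested.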 Raw values are not corrected between plates. Reagents against one gene are numbered here. No sequences are given here. Not stated in the record: the amount of reagent.

| gene | siRNA no. | G2 robust z-score | G2 cells, % of GMNN control | raw share of cells in G2 (%) | call |
| --- | --- | --- | --- | --- | --- |
| DAPK3 | 1 | -0.854 | -3.04 | 4.6 | inactive |
| DAPK3 | 2 | -0.939 | -3.64 | 4.18 | inactive |
| DAPK3 | 3 | -0.73 | -2.17 | 3.26 | inactive |
| NUP62 | 1 | 4.38 | 33.8 | 15.4 | inactive |
| NUP62 | 2 | -0.287 | 0.949 | 4.3 | inactive |
| NUP62 | 3 | 1.05 | 10.4 | 10.9 | inactive |
| PSMA7 | 1 | 3.35 | 26.5 | 14.8 | inactive |
| PSMA7 | 2 | 1.44 | 13.1 | 8.8 | inactive |
| PSMA7 | 3 | 2.07 | 17.6 | 11.1 | inactive |
| WDHD1 | 1 | -0.0785 | 2.42 | 4.69 | inactive |
| WDHD1 | 2 | -0.56 | -0.969 | 3.83 | inactive |
| WDHD1 | 3 | 7.97 | 59.1 | 30.1 | active |
| SPATA9 | 1 | -0.89 | -3.29 | 1.41 | inactive |
| SPATA9 | 2 | -0.427 | -0.0372 | 4.1 | inactive |
| SPATA9 | 3 | 1.15 | 11.1 | 6.75 | inactive |
| ZNF818P | 1 | -0.204 | 1.53 | 3.62 | inactive |
| ZNF818P | 2 | 1.08 | 10.5 | 6.82 | inactive |
| ZNF818P | 3 | 2.76 | 22.4 | 11.4 | inactive |
| RFPL4AL1 | 1 | 0.184 | 4.26 | 5.77 | inactive |
| RFPL4AL1 | 2 | 0.0402 | 3.25 | 4.32 | inactive |
| RFPL4AL1 | 3 | 0.383 | 5.66 | 5.24 | inactive |
| CYP4A22 | 1 | 0.821 | 8.74 | 7.48 | inactive |
| CYP4A22 | 2 | -0.351 | 0.498 | 6.12 | inactive |
| CYP4A22 | 3 | 0.826 | 8.78 | 8.39 | inactive |
| PAAF1 | 1 | 0.0113 | 3.05 | 5.91 | inactive |
| PAAF1 | 2 | 0.87 | 9.09 | 7.48 | inactive |
| PAAF1 | 3 | 0.162 | 4.11 | 7.14 | inactive |
| PAMR1 | 1 | 0.372 | 5.59 | 7.51 | inactive |
| PAMR1 | 2 | 0.201 | 4.38 | 6.46 | inactive |
| PAMR1 | 3 | 0.817 | 8.72 | 7.16 | inactive |
| VCPKMT | 1 | 1.78 | 15.5 | 6.78 | inactive |
| VCPKMT | 2 | 0.296 | 5.05 | 6.78 | inactive |
| VCPKMT | 3 | -0.713 | -2.05 | 3.69 | inactive |
| EBI3 | 1 | -0.542 | -0.844 | 5.33 | inactive |
| EBI3 | 2 | 0.507 | 6.53 | 5.95 | inactive |
| EBI3 | 3 | 1.45 | 13.2 | 11.7 | inactive |
| SPC24 | 1 | 0.607 | 7.24 | 6.25 | inactive |
| SPC24 | 2 | 0.524 | 6.66 | 4.97 | inactive |
| SPC24 | 3 | -0.241 | 1.27 | 3.51 | inactive |
| ANKRD54 | 1 | -0.562 | -0.987 | 3.8 | inactive |
| ANKRD54 | 2 | 2.26 | 18.9 | 9.08 | inactive |
| ANKRD54 | 3 | -0.787 | -2.57 | 1.65 | inactive |
| ADAMTS8 | 1 | 6.81 | 50.9 | 22.9 | active |
| ADAMTS8 | 2 | -0.205 | 1.53 | 4.48 | inactive |
| ADAMTS8 | 3 | 0.795 | 8.56 | 8.54 | inactive |
| WASL | 1 | -0.414 | 0.0555 | 4.73 | inactive |
| WASL | 2 | 0.923 | 9.46 | 8.59 | inactive |
| WASL | 3 | -0.797 | -2.64 | 3.34 | inactive |
| TSPAN5 | 1 | 6.76 | 50.5 | 28.2 | active |
| TSPAN5 | 2 | 0.27 | 4.87 | 5.98 | inactive |
| TSPAN5 | 3 | 0.654 | 7.57 | 6.16 | inactive |
| GABARAPL1 | 1 | 4.12 | 32 | 14.8 | inactive |
| GABARAPL1 | 2 | 1.94 | 16.6 | 13.7 | inactive |
| GABARAPL1 | 3 | -0.164 | 1.82 | 4.58 | inactive |
| CIBAR2 | 1 | -0.451 | -0.207 | 3.92 | inactive |
| CIBAR2 | 2 | -0.728 | -2.16 | 2.32 | inactive |
| CIBAR2 | 3 | 1.51 | 13.6 | 9.68 | inactive |
| AP3S2 | 1 | -1.14 | -5.03 | 3.51 | inactive |
| AP3S2 | 2 | 1.99 | 17 | 9.33 | inactive |
| AP3S2 | 3 | -0.834 | -2.9 | 5.34 | inactive |
| PUF60 | 1 | -0.374 | 0.338 | 3.98 | inactive |
| PUF60 | 2 | -0.279 | 1 | 6.77 | inactive |
| PUF60 | 3 | 0.78 | 8.45 | 6.98 | inactive |
| ATP10B | 1 | 2.7 | 22 | 15.2 | inactive |
| ATP10B | 2 | -0.683 | -1.84 | 3.54 | inactive |
| ATP10B | 3 | 0.147 | 4 | 5.23 | inactive |
| APBA2 | 1 | 0.419 | 5.92 | 5.81 | inactive |
| APBA2 | 2 | -0.233 | 1.33 | 5.47 | inactive |
| APBA2 | 3 | -0.651 | -1.62 | 2.52 | inactive |

9 of these entries in another layout:
gene	siRNA no.	G2 robust z-score	G2 cells, % of GMNN control	raw share of cells in G2 (%)	call
CYP4A22	2	-0.351	0.498	6.12	inactive
CYP4A22	3	0.826	8.78	8.39	inactive
PAAF1	1	0.0113	3.05	5.91	inactive
PAAF1	2	0.87	9.09	7.48	inactive
PAAF1	3	0.162	4.11	7.14	inactive
PAMR1	1	0.372	5.59	7.51	inactive
PAMR1	2	0.201	4.38	6.46	inactive
PAMR1	3	0.817	8.72	7.16	inactive
VCPKMT	1	1.78	15.5	6.78	inactive
